# The supplement of paper PMC8728848
# The other results are listed elsewhere or left out.
# B1: PX9961M-bvu-482-23-482 (Bacteroides vulgatus) (protein)
# chain: WLDLAPSTQVDTETSINVLSDIEFTLNGIYSTMQSSDAYSGRLVYYGDVTGDDMQAVSSTKRTGNYYRFNFTKDNGPSSHWSYLYSIIQNCNLILMNVDKLSIDEDETEYKNDLKGQALAIRGMALFDLTRIFGYPYLKDNGASLGVPIVKELSTIDSKPARNTVAECYTEIISDLKNSTELLSGDFNKGKVNRWAAMTLLSRVYLYKGEYNEALTMAENAIKGAEKEGYALWTNEEYPTAWGNDASASNPGEILFEIVNLTTDSPGKESMGYLNSYNGYDDMCITCSFYQLLKKDPKDVRLKILSFDKKYYAYVNKYQPQQGENITDANIPLIRLSEAYLNAAEAAVQTGDNAKAVKYLNSIVQRANPENSVEGKTLTLENVLDERRKELVAEGHRMYDVIRNGMTVKRIDVKDSDINKTKHNTAYMEYDWNFHKILLPIPKKEMDANPNMKQNPGYVD
# Assays:
# Assay in all cases: glycan array binding signal (z-score within array); higher = stronger binding
# Conditions in all cases: glycan notation: IUPAC condensed, linker removed
# [1] = target: Neu5Ac(a2-3)Gal(b1-3)[Fuc(a1-4)]GlcNAc
# Summary of the method: (§1)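 The binding signal is a Z-score computed within each array. Data were drawn from 3228 arrays in the Consortium for Functional Glycomics database, restricted to those with a known protein sequence. Scores were averaged over arrays of the same protein sequence at different concentrations or buffers, and over linkers, and negative values can be taken as non-binding.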
# [2] = target: Neu5Ac(a2-3)Gal(b1-3)[Fuc(a1-4)]GlcNAc(b1-3)Gal(b1-3)[Fuc(a1-4)]GlcNAc
# Summary of the method: as §1
# [3] = target: Neu5Ac(a2-3)Gal(b1-3)[Fuc(a1-4)]GlcNAc(b1-3)Gal(b1-4)[Fuc(a1-3)]GlcNAc
# Summary of the method: as §1
# [4] = target: Neu5Ac(a2-3)Gal(b1-3)[GlcNAc(b1-6)]GalNAc
# Summary of the method: as §1
# [5] = target: Neu5Ac(a2-3)Gal(b1-3)[Neu5Ac(a2-6)]GalNAc
# Summary of the method: as §1
# [6] = target: Neu5Ac(a2-3)Gal(b1-3)[Neu5Ac(a2-6)]GlcNAc(b1-3)[Fuc(a1-3)[Gal(b1-4)]GlcNAc(b1-6)]Gal(b1-4)Glc
# Summary of the method: as §1
# [7] = target: Neu5Ac(a2-3)Gal(b1-3)]Neu5Ac(a2-3)Gal(b1-4)]GlcNAc
# Summary of the method: as §1
# Neu5Ac(a2-3)Gal(b1-4)Glc = target: Neu5Ac(a2-3)Gal(b1-4)Glc
# Summary of the method: as §1
# [8] = target: Neu5Ac(a2-3)Gal(b1-4)GlcNAc
# Summary of the method: as §1
# [9] = target: Neu5Ac(a2-3)Gal(b1-4)GlcNAc(b1-2)Man
# Summary of the method: as §1
# [10] = target: Neu5Ac(a2-3)Gal(b1-4)GlcNAc(b1-2)Man(a1-3)[GlcNAc(b1-4)][Neu5Ac(a2-3)Gal(b1-4)GlcNAc(b1-2)Man(a1-6)]Man(b1-4)GlcNAc(b1-4)GlcNAc
# Summary of the method: as §1
# [11] = target: Neu5Ac(a2-3)Gal(b1-4)GlcNAc(b1-2)Man(a1-3)[Neu5Ac(a2-3)Gal(b1-4)GlcNAc(b1-2)Man(a1-6)]Man(b1-4)GlcNAc(b1-4)GlcNAc
# Summary of the method: as §1
# [12] = target: Neu5Ac(a2-3)Gal(b1-4)GlcNAc(b1-2)Man(a1-3)[Neu5Ac(a2-3)Gal(b1-4)GlcNAc(b1-2)Man(a1-6)]Man(b1-4)GlcNAc(b1-4)[Fuc(a1-6)]GlcNAc
# Summary of the method: as §1
# [13] = target: Neu5Ac(a2-3)Gal(b1-4)GlcNAc(b1-2)Man(a1-3)[Neu5Ac(a2-6)Gal(b1-4)GlcNAc(b1-2)Man(a1-6)]Man(b1-4)GlcNAc(b1-4)GlcNAc
# Summary of the method: as §1
# [14] = target: Neu5Ac(a2-3)Gal(b1-4)GlcNAc(b1-2)[Neu5Ac(a2-3)Gal(b1-4)GlcNAc(b1-4)]Man(a1-3)[GlcNAc(b1-4)][Neu5Ac(a2-3)Gal(b1-4)GlcNAc(b1-2)[Neu5Ac(a2-3)Gal(b1-4)GlcNAc(b1-6)]Man(a1-6)]Man(b1-4)GlcNAc(b1-4)GlcNAc
# Summary of the method: as §1
# [15] = target: Neu5Ac(a2-3)Gal(b1-4)GlcNAc(b1-2)[Neu5Ac(a2-3)Gal(b1-4)GlcNAc(b1-4)]Man(a1-3)[GlcNAc(b1-4)][Neu5Ac(a2-3)Gal(b1-4)GlcNAc(b1-4)Man(a1-6)]Man(b1-4)GlcNAc(b1-4)GlcNAc
# Summary of the method: as §1
# [16] = target: Neu5Ac(a2-3)Gal(b1-4)GlcNAc(b1-2)[Neu5Ac(a2-3)Gal(b1-4)GlcNAc(b1-6)]Man(a1-6)[Neu5Ac(a2-3)Gal(b1-4)GlcNAc(b1-2)Man(a1-3)]Man(b1-4)GlcNAc(b1-4)GlcNAc
# Summary of the method: as §1
# [17] = target: Neu5Ac(a2-3)Gal(b1-4)GlcNAc(b1-2)[Neu5Ac(a2-3)Gal(b1-4)GlcNAc(b1-6)]Man(a1-6)[Neu5Ac(a2-3)Gal(b1-4)GlcNAc(b1-2)Man(a1-3)][GlcNAc(b1-4)]Man(b1-4)GlcNAc(b1-4)GlcNAc
# Summary of the method: as §1
# [18] = target: Neu5Ac(a2-3)Gal(b1-4)GlcNAc(b1-3)Gal
# Summary of the method: as §1
# [19] = target: Neu5Ac(a2-3)Gal(b1-4)GlcNAc(b1-3)Gal(b1-3)GlcNAc
# Summary of the method: as §1
# [20] = target: Neu5Ac(a2-3)Gal(b1-4)GlcNAc(b1-3)Gal(b1-4)GlcNAc
# Summary of the method: as §1
# [21] = target: Neu5Ac(a2-3)Gal(b1-4)GlcNAc(b1-3)Gal(b1-4)GlcNAc(b1-2)Man(a1-3)[Neu5Ac(a2-3)Gal(b1-4)GlcNAc(b1-3)Gal(b1-4)GlcNAc(b1-2)Man(a1-6)]Man(b1-4)GlcNAc(b1-4)GlcNAc
# Summary of the method: as §1
# [22] = target: Neu5Ac(a2-3)Gal(b1-4)GlcNAc(b1-3)Gal(b1-4)GlcNAc(b1-3)Gal(b1-4)GlcNAc
# Summary of the method: as §1
# [23] = target: Neu5Ac(a2-3)Gal(b1-4)GlcNAc(b1-3)Gal(b1-4)GlcNAc(b1-3)Gal(b1-4)GlcNAc(b1-2)Man(a1-3)[Neu5Ac(a2-3)Gal(b1-4)GlcNAc(b1-3)Gal(b1-4)GlcNAc(b1-3)Gal(b1-4)GlcNAc(b1-2)Man(a1-6)]GalNAc
# Summary of the method: as §1
# [24] = target: Neu5Ac(a2-3)Gal(b1-4)GlcNAc(b1-3)Gal(b1-4)GlcNAc(b1-3)GalNAc
# Summary of the method: as §1
# [25] = target: Neu5Ac(a2-3)Gal(b1-4)GlcNAc(b1-3)Gal(b1-4)GlcNAc(b1-3)[Neu5Ac(a2-3)Gal(b1-4)GlcNAc(b1-3)Gal(b1-4)GlcNAc(b1-6)]GalNAc
# Summary of the method: as §1
# [26] = target: Neu5Ac(a2-3)Gal(b1-4)GlcNAc(b1-3)Gal(b1-4)GlcNAc(b1-6)[Gal(b1-3)]GalNAc
# Summary of the method: as §1
# [27] = target: Neu5Ac(a2-3)Gal(b1-4)GlcNAc(b1-3)Gal(b1-4)[Fuc(a1-3)]GlcNAc
# Summary of the method: as §1
# [28] = target: Neu5Ac(a2-3)Gal(b1-4)GlcNAc(b1-3)GalNAc
# Summary of the method: as §1
# [29] = target: Neu5Ac(a2-3)Gal(b1-4)GlcNAc(b1-3)[Neu5Ac(a2-3)Gal(b1-4)GlcNAc(b1-6)]GalNAc
# Summary of the method: as §1
binder,measurement,setting,value
B1,glycan array binding signal (z-score),[1],0.051
same,glycan array binding signal (z-score),[2],0.573
same,glycan array binding signal (z-score),[3],0.838
same,glycan array binding signal (z-score),[4],0.107
same,glycan array binding signal (z-score),[5],-0.425
same,glycan array binding signal (z-score),[6],-0.221
same,glycan array binding signal (z-score),[7],-0.084
same,glycan array binding signal (z-score),Neu5Ac(a2-3)Gal(b1-4)Glc,-0.148
same,glycan array binding signal (z-score),[8],-0.183
same,glycan array binding signal (z-score),[9],-0.178
same,glycan array binding signal (z-score),[10],0.122
same,glycan array binding signal (z-score),[11],-0.544
same,glycan array binding signal (z-score),[12],0.819
same,glycan array binding signal (z-score),[13],1.21
same,glycan array binding signal (z-score),[14],0.556
same,glycan array binding signal (z-score),[15],1.11
same,glycan array binding signal (z-score),[16],0.782
same,glycan array binding signal (z-score),[17],-0.159
same,glycan array binding signal (z-score),[18],1.15
same,glycan array binding signal (z-score),[19],-0.396
same,glycan array binding signal (z-score),[20],-0.488
same,glycan array binding signal (z-score),[21],0.315
same,glycan array binding signal (z-score),[22],-0.18
same,glycan array binding signal (z-score),[23],0.086
same,glycan array binding signal (z-score),[24],-0.629
same,glycan array binding signal (z-score),[25],-0.161
same,glycan array binding signal (z-score),[26],-0.353
same,glycan array binding signal (z-score),[27],-0.699
same,glycan array binding signal (z-score),[28],0.638
same,glycan array binding signal (z-score),[29],-0.358

# 2 records drawn at random from those above:
binder,measurement,setting,value
B1,glycan array binding signal (z-score),[27],-0.699
same,glycan array binding signal (z-score),[20],-0.488
